Reference: article PMC6365587
These are yes or no findings as the source states them, for the method shown. Binding seen in cells or lysates may run through a third protein. Some results given as binding are weak or reduced against the parent protein; the word gives no strength. For some of these results: Sequences can lack the tags named with a protein.

Amino acid sequences for entries named in this document (tags omitted). A change or cut given only in a name is not applied to a line headed by its entry. Chains listed by the source or under a name are the forms on record and can include a tag or linker. Residues count along the entry.
UniProt P35226: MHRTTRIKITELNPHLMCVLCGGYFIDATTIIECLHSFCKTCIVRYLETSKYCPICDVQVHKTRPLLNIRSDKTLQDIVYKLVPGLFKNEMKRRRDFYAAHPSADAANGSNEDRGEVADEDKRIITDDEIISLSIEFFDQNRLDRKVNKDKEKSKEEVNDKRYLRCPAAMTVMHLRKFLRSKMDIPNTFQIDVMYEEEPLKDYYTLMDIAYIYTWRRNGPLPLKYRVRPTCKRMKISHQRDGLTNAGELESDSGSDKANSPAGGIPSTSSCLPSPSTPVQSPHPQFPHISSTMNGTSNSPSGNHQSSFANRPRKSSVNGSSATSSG
GFP-tagged Lamin A (P02545, residues 1-646): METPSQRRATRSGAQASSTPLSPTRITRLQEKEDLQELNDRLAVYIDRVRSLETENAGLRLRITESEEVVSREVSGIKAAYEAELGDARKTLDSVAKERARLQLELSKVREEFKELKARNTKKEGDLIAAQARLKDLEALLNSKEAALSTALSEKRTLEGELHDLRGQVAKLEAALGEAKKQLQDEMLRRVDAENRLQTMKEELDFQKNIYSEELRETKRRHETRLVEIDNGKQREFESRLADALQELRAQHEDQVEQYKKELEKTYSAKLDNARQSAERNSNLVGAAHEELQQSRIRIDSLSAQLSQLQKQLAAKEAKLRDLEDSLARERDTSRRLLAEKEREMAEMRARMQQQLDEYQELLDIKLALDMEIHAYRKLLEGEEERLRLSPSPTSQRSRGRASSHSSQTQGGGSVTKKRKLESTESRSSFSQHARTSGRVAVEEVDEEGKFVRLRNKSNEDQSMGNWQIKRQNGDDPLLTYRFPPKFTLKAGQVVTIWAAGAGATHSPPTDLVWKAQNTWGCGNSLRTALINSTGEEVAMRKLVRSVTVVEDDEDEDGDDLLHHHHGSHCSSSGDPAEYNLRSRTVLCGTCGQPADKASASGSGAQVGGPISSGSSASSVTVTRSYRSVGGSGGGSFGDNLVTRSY
GFP-tagged progerin (P02545-6, form named): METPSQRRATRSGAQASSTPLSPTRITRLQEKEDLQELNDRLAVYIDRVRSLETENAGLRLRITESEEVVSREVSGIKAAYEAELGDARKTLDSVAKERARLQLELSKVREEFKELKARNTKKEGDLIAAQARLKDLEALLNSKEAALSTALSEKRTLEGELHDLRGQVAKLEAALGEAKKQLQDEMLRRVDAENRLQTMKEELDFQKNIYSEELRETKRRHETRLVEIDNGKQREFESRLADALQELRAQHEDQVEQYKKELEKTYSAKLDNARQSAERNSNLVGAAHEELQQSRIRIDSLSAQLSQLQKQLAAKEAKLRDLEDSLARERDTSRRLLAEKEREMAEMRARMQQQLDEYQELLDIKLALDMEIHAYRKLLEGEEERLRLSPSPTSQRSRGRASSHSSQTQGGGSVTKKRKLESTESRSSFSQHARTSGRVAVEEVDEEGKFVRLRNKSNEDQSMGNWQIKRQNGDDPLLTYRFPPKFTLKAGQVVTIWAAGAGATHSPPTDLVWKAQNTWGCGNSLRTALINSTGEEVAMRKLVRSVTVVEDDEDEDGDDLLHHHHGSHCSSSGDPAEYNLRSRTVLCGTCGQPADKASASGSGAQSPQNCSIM
GFP-tagged Lamin C (P02545-2, form named): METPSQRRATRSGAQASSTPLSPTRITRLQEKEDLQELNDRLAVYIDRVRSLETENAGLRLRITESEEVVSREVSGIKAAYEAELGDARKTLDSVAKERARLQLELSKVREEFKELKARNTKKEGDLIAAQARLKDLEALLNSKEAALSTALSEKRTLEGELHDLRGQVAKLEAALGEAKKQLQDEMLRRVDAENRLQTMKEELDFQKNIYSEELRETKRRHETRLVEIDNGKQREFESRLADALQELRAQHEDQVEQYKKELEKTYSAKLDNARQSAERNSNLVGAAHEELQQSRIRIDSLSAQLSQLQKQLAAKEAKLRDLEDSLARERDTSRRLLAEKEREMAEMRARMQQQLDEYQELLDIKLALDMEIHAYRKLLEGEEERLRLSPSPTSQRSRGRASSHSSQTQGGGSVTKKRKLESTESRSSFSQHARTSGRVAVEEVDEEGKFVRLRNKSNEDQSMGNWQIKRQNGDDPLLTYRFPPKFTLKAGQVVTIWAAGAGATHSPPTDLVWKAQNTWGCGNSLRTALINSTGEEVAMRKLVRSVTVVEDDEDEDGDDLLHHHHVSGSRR

Tests used:
[1] = target: GST-bead-fused p53 N-terminal region (UniProt P04637); assay: pull-down; GST-bead-fused p53 N-terminal or middle region incubated with lysate of HEK293 cells transfected with GFP-Lamin A, B, C or PRG, room temperature, 3 h; washed once each with PBS and RIPA buffer; blot with anti-GFP and GST; only the target purified
[2] = target: GST-bead-fused p53 middle region (UniProt P04637); assay: as above
FLAG-tagged MEL-18 = target: T1, FLAG-tagged MEL-18 (UniProt P35227); assay: co-IP; whole-cell lysates expressing FLAG-tagged MEL-18 or BMI-1 and GFP-tagged Lamins; anti-FLAG antibody 4 °C 2 h, protein A/G agarose 4 °C 2 h; washed with RIPA buffer; blot with anti-FLAG, Actin and GFP
T1 sequence: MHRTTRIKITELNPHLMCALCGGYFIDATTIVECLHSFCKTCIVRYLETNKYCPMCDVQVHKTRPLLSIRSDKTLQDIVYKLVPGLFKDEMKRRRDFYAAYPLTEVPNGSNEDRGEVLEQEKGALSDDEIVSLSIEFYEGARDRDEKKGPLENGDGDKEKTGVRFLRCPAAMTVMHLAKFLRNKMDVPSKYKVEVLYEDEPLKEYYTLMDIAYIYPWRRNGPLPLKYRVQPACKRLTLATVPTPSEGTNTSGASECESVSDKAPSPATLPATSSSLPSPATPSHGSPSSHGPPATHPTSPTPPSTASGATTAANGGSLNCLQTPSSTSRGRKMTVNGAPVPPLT

FLAG-tagged BMI-1 = FLAG-tagged BMI-1 (UniProt P35226); assay: as above

Measured: binding

GFP-tagged progerin (from UniProt P02545-6 1-614)
binds: all assays above

GFP-tagged Lamin C (from UniProt P02545-2 1-572)
binds: [2] | FLAG-tagged MEL-18 | FLAG-tagged BMI-1

GFP-tagged Lamin A (from UniProt P02545 1-646)
binds: [2] | FLAG-tagged MEL-18 | FLAG-tagged BMI-1
